The numbers were not newly measured in patent US10709159B2, “Increasing the bioavailability of flavan-3-ols with carbohydrates with a low glycemic index” (NESTEC S.A., priority 2012, dated 2020), which cites them from elsewhere.

Structures are written as SMILES.

The conditions of this data set: relative to glucose; cited from earlier work.

For the compound `OC[C@@H](O)[C@@H](O)[C@H](O)[C@@H](O)CO` [sorbitol, D-sorbitol], the “glycemic index (GI)” value is on record as 4.
In the case of `O=C[C@H](O)[C@@H](O)[C@@H](O)[C@H](O)CO` [galactose], the “glycemic index (GI)” value is given as 23.
In the case of `OC[C@@H](O)[C@H](O)[C@@H](O)CO` [xylitol], the “glycemic index (GI)” value is listed as 7.
